{"source": "PubChem BioAssay AID504774 (Drosophila RNAi Screening Center, 2011)", "aim": "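Knock-downs that shift viability of MMS-exposed cells relative to untreated ones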 (primary screen)", "cells": "Drosophila Kc167 cells", "knock-down reagent": "long dsRNA against Drosophila genes, about 0.25 µg dsRNA per well", "timing": "about 6 days: 3 days knock-down, then 3 days with or without MMS", "conditions": "methyl methanesulphonate 0.004% (w/v) for 3 days after knock-down", "measured": "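ATP-dependent luminescence as a measure of live cells in MMS-exposed wells, quantile normalised within each plate, with replicate values also given as a mean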", "direction": "mean viability with MMS and viability with MMS: higher = more surviving cells after MMS", "note": "In all, the deposit lists about 23,000 reagents; this is an unselected part of those that have a named target and a result. 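Values are quantile-normalised luminescence on an arbitrary scale; higher means more cells surviving MMS.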 The numbers tell different reagents against one gene apart. Names joined by + are all predicted targets of the reagent. Not all columns of the deposit are shown. No sequences are given here."}
{"Gene": "CG31010", "reagent no.": 1, "mean viability with MMS": 3.59e6, "viability with MMS, replicate 1": 4.12e6}
{"Gene": "SrpRbeta (Signal recognition particle receptor beta)", "reagent no.": 1, "mean viability with MMS": 3.62e6, "viability with MMS, replicate 1": 4.06e6}
{"Gene": "Dab (Disabled)", "reagent no.": 1, "mean viability with MMS": 3.59e6, "viability with MMS, replicate 1": 3.85e6}
{"Gene": "CG32944", "reagent no.": 1, "mean viability with MMS": 3.47e6, "viability with MMS, replicate 1": 3.88e6}
{"Gene": "CG32944", "reagent no.": 2, "mean viability with MMS": 3.36e6, "viability with MMS, replicate 1": 3.75e6}
{"Gene": "DCTN2-p50 (Dynactin 2, p50 subunit)", "reagent no.": 1, "mean viability with MMS": 3.47e6, "viability with MMS, replicate 1": 3.92e6}
{"Gene": "CG42821 + CG42822", "reagent no.": 1, "mean viability with MMS": 3.49e6, "viability with MMS, replicate 1": 3.96e6}
{"Gene": "CG42821 + CG42822", "reagent no.": 2, "mean viability with MMS": 3.54e6, "viability with MMS, replicate 1": 4.12e6}
{"Gene": "Acp76A (Accessory gland protein 76A)", "reagent no.": 1, "mean viability with MMS": 3.51e6, "viability with MMS, replicate 1": 3.97e6}
{"Gene": "CAH7 (Carbonic anhydrase 7)", "reagent no.": 1, "mean viability with MMS": 3.68e6, "viability with MMS, replicate 1": 4.14e6}
{"Gene": "CG40485", "reagent no.": 1, "mean viability with MMS": 3.44e6, "viability with MMS, replicate 1": 3.90e6}
{"Gene": "CR11700 (retired record)", "reagent no.": 1, "mean viability with MMS": 2.28e6, "viability with MMS, replicate 1": 3.30e6}
{"Gene": "Or67c (Odorant receptor 67c)", "reagent no.": 1, "mean viability with MMS": 3.45e6, "viability with MMS, replicate 1": 3.91e6}
{"Gene": "Hmr (Hybrid male rescue)", "reagent no.": 1, "mean viability with MMS": 3.61e6, "viability with MMS, replicate 1": 4.14e6}
{"Gene": "CG31546", "reagent no.": 1, "mean viability with MMS": 3.65e6, "viability with MMS, replicate 1": 4.23e6}
{"Gene": "Fntb (Farnesyl transferase beta subunit)", "reagent no.": 1, "mean viability with MMS": 3.58e6, "viability with MMS, replicate 1": 4.10e6}
{"Gene": "CG3280 (retired record)", "reagent no.": 1, "mean viability with MMS": 3.54e6, "viability with MMS, replicate 1": 3.93e6}
{"Gene": "CG31948", "reagent no.": 1, "mean viability with MMS": 3.55e6, "viability with MMS, replicate 1": 4.02e6}
{"Gene": "l(2)k01209 (lethal (2) k01209)", "reagent no.": 1, "mean viability with MMS": 3.66e6, "viability with MMS, replicate 1": 4.13e6}
{"Gene": "Nf-YA (Nuclear factor Y-box A)", "reagent no.": 1, "mean viability with MMS": 3.12e6, "viability with MMS, replicate 1": 3.50e6}
{"Gene": "Nf-YA (Nuclear factor Y-box A)", "reagent no.": 2, "mean viability with MMS": 3.85e6, "viability with MMS, replicate 1": 4.42e6}
{"Gene": "alpha-Est9 (alpha-Esterase-9)", "reagent no.": 1, "mean viability with MMS": 3.58e6, "viability with MMS, replicate 1": 4.09e6}
{"Gene": "CheB93b (Chemosensory protein B 93b)", "reagent no.": 1, "mean viability with MMS": 3.46e6, "viability with MMS, replicate 1": 3.84e6}
{"Gene": "NO66 (Nucleolar protein 66)", "reagent no.": 1, "mean viability with MMS": 3.42e6, "viability with MMS, replicate 1": 3.86e6}
{"Gene": "RpL18 (Ribosomal protein L18)", "reagent no.": 1, "mean viability with MMS": 3.52e6, "viability with MMS, replicate 1": 3.51e6}
{"Gene": "RpL18 (Ribosomal protein L18)", "reagent no.": 2, "mean viability with MMS": 2.62e6, "viability with MMS, replicate 1": 3.71e6}
{"Gene": "CG34047 (retired record)", "reagent no.": 1, "mean viability with MMS": 3.79e6, "viability with MMS, replicate 1": 4.11e6}
{"Gene": "CG34047 (retired record)", "reagent no.": 2, "mean viability with MMS": 3.58e6, "viability with MMS, replicate 1": 4.00e6}
{"Gene": "CG5577", "reagent no.": 1, "mean viability with MMS": 3.58e6, "viability with MMS, replicate 1": 4.15e6}
{"Gene": "Sxl + CG14425 (retired record)", "reagent no.": 1, "mean viability with MMS": 3.44e6, "viability with MMS, replicate 1": 3.98e6}
{"Gene": "Sxl + CG14425 (retired record)", "reagent no.": 2, "mean viability with MMS": 3.58e6, "viability with MMS, replicate 1": 4.13e6}
{"Gene": "Sxl + CG14425 (retired record)", "reagent no.": 3, "mean viability with MMS": 3.30e6, "viability with MMS, replicate 1": 3.82e6}
{"Gene": "Vps53 (Vacuolar protein sorting 53)", "reagent no.": 1, "mean viability with MMS": 3.59e6, "viability with MMS, replicate 1": 4.05e6}
{"Gene": "CG16820", "reagent no.": 1, "mean viability with MMS": 3.53e6, "viability with MMS, replicate 1": 3.96e6}
{"Gene": "ph-p (polyhomeotic proximal)", "reagent no.": 1, "mean viability with MMS": 3.69e6, "viability with MMS, replicate 1": 4.01e6}
